Laboratory results published in patent publication US20090076047A1, “2-Substituted Hydroxylaminopyrimidine, Method for the Production and the Use Thereof in the Form of Pesticides” (priority 2005, published 2009).
Some of these results come from one statement about several compounds together.

How the values were obtained:
Assay type in all cases: in vivo
Alternaria solani = assay: Activity against early blight on tomatoes caused by Alternaria solani (greenhouse, protective spray); conditions: 250 ppm, tomato leaves sprayed 1 day before infection, assessed after 5 days; untreated control 90% infected
Puccinia recondita = assay: Protective activity against Puccinia recondita on wheat (brown rust of wheat) (greenhouse); conditions: 250 ppm, wheat seedlings, inoculated next day, untreated control 90% infected
[1] = tested on: Pyrenophora [syn. Drechslera] teres; assay: Activity against net blotch of barley caused by Pyrenophora teres, 1 day protective application (greenhouse); conditions: 250 ppm, barley seedlings, assessed after 6 days, % of total leaf area, untreated control 90% infected

Structure (SMILES)	infection (Alternaria solani)	infection (Puccinia recondita)	infection [1]
CONC(=N)c1nc(Cl)c(-c2c(F)cc(F)cc2F)c(N2CCCO2)n1 [Compound 17, N-Methoxy-4-chloro-6-(isoxazolidin-2-yl)-5-(2,4,6-trifluorophenyl)-2-pyrimidinecarboximidamide]	at most 20%	at most 15%	–
CC1CCCN(c2nc(-n3cncn3)nc(Cl)c2-c2c(F)cc(F)cc2F)O1 (stereo not shown) [Compound 21, 4-Chloro-6-(6-methyltetrahydro-2H-(1,2)-oxazin-2-yl)-2-(1,2,4-triazol-1-yl)-5-(2,4,6-trifluorophenyl)pyrimidine]	–	–	at most 20%
CONC(=N)c1nc(Cl)c(-c2c(F)cc(F)cc2F)c(N(CC2CC2)OC)n1 [Compound 27, N-Methoxy-4-chloro-6-(N-cyclopropylmethyl-N-methoxyamino)-5-(2,4,6-trifluorophenyl)-2-pyrimidinecarboximidamide]	–	–	at most 20%
